Test results taken from paper PMC7960628.

By UniProt entry, the sequences of proteins in these tests, tags left out. Where a name states a change or a piece, a line headed by the entry shows the natural chain unless it says otherwise.
UniProt P02454: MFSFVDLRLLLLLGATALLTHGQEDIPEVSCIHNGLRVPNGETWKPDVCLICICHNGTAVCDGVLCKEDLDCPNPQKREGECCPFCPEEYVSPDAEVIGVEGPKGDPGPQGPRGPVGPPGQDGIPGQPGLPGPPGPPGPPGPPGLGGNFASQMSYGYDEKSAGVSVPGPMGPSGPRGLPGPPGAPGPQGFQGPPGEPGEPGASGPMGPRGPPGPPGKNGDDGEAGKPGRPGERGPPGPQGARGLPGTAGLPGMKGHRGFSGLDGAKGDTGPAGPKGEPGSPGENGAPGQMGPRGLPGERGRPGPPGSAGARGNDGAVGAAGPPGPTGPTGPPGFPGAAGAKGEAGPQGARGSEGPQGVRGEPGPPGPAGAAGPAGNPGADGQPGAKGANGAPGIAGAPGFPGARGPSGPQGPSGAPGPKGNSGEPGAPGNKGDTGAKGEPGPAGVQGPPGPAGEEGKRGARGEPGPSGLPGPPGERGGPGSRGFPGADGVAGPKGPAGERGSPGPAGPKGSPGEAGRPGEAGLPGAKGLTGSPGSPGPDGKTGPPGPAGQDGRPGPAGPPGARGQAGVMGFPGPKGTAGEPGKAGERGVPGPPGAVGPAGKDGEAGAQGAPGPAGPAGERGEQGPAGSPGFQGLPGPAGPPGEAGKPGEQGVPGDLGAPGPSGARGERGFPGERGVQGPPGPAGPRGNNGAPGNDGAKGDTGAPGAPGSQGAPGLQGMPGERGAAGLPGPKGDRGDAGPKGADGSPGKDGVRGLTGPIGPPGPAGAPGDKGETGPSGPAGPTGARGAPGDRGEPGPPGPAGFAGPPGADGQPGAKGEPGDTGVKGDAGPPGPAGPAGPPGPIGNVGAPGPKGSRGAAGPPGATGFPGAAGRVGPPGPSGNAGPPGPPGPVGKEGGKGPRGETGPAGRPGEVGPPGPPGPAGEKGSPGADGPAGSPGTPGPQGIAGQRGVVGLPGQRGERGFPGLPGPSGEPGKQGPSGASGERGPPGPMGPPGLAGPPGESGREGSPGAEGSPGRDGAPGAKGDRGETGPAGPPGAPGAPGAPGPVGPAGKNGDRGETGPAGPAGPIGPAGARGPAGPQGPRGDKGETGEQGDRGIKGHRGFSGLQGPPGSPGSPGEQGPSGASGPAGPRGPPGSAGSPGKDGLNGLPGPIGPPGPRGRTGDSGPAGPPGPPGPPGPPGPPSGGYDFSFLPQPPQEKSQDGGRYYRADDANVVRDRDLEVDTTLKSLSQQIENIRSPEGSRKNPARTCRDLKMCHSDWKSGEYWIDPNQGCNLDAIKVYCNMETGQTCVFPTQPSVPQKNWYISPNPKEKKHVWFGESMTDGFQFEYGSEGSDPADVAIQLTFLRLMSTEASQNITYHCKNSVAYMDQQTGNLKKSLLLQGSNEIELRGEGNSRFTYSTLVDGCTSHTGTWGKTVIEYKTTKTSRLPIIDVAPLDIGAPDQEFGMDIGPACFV
UniProt P56199: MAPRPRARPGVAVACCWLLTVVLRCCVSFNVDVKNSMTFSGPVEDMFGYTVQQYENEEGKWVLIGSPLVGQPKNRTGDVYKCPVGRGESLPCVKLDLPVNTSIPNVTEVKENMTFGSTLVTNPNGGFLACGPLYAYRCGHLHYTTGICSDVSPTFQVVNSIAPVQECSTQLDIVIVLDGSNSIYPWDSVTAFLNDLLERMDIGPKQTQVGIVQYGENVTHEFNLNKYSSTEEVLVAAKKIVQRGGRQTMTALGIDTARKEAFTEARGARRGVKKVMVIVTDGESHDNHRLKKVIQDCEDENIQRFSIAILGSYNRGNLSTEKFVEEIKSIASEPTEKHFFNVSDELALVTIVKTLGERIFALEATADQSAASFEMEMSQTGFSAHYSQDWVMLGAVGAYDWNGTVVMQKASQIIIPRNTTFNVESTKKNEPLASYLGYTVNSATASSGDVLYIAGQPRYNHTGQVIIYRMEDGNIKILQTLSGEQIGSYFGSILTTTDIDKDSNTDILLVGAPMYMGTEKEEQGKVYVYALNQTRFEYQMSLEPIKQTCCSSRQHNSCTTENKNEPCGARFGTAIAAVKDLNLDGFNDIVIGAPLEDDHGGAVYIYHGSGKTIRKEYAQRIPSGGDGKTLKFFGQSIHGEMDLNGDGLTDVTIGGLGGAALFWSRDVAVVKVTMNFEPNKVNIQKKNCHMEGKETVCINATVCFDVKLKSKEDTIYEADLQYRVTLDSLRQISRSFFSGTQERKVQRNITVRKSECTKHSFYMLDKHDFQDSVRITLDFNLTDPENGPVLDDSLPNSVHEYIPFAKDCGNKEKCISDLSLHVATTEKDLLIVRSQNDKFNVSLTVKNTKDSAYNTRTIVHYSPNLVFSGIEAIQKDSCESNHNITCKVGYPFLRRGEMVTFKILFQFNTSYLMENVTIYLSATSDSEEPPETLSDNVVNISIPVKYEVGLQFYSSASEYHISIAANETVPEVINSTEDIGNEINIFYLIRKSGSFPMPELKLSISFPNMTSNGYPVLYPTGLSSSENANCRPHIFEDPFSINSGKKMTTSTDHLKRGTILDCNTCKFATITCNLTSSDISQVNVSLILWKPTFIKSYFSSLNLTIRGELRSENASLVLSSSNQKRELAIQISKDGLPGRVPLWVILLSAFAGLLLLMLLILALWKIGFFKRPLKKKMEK

Target: collagen I (rat tail, Collaborative Biomedical Products) (rat) (UniProt P02454)
Assay: ELISA; solid-phase assay: 0.25 μg of collagens I, IV, XIII in 50 μl TBS coated on microtiter plates; GST-I domains soluble, diluted in TBS with 30 μg/ml BSA, 2 mM MgCl2, 0.05% Tween-20; room temperature; detected with anti-GST antibody; both purified

binding: binds
Substance: GST-α1-I domain (recombinant I domain of human integrin α1) (from UniProt P56199) (domain or fragment)

These are yes or no findings as the source states them, for the method shown. Binding can be weak; no strength is given.
